Data reported in the supplement of paper PMC10032668.
Some of the results follow. The list holds hits alone, and they repeat only in part.

Amino acid sequences for entries named in this document (tags omitted).
APLP2, Q06481, UniProt Q06481, whole entry: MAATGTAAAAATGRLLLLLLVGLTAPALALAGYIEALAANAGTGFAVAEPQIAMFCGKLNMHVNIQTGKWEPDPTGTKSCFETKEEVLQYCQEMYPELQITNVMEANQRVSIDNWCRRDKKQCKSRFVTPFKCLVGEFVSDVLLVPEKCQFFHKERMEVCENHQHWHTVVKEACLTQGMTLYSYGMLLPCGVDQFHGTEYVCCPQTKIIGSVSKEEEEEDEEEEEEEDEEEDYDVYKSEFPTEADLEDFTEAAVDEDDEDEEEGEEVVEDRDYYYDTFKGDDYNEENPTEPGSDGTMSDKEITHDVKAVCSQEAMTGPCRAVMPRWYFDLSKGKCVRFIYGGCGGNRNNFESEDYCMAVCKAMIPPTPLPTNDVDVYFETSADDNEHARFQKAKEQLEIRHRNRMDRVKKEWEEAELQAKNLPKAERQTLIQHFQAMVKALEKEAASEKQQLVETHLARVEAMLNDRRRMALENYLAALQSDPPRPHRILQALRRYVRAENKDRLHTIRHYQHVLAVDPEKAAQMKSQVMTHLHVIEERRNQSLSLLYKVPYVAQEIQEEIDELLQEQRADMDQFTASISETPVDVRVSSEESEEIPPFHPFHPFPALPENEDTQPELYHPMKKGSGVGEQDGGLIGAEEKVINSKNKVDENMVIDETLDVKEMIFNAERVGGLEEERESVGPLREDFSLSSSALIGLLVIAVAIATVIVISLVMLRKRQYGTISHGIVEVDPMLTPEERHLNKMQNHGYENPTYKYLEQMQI
EIF3B, P55884, UniProt P55884, whole entry: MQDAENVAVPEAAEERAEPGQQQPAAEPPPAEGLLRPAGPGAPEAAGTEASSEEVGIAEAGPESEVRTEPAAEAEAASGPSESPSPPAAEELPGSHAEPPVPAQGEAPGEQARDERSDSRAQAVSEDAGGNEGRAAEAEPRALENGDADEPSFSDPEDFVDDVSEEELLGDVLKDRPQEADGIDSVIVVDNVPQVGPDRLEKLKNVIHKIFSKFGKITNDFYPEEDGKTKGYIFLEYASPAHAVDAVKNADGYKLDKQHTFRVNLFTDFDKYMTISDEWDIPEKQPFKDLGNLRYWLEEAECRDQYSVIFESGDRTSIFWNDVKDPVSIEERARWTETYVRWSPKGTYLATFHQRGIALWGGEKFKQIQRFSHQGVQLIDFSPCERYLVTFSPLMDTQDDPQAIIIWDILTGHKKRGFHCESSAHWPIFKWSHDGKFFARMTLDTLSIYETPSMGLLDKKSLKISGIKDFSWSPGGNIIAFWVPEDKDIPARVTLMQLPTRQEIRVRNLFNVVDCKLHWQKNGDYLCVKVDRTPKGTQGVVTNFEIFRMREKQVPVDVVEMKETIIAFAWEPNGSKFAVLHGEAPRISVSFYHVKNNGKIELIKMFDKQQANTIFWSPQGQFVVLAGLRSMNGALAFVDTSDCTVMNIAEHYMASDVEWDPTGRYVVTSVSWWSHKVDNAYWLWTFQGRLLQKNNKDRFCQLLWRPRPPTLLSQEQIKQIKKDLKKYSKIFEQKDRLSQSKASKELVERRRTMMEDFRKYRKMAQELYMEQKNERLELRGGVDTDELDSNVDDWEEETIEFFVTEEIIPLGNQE
HIST1H1E, P10412, UniProt P10412, whole entry: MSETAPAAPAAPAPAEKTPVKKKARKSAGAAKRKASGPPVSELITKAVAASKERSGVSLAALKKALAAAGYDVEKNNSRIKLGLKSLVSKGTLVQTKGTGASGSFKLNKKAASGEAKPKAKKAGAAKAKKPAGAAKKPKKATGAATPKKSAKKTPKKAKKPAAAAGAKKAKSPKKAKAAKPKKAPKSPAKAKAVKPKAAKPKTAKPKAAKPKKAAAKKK
HTT, P42858, UniProt P42858, whole entry: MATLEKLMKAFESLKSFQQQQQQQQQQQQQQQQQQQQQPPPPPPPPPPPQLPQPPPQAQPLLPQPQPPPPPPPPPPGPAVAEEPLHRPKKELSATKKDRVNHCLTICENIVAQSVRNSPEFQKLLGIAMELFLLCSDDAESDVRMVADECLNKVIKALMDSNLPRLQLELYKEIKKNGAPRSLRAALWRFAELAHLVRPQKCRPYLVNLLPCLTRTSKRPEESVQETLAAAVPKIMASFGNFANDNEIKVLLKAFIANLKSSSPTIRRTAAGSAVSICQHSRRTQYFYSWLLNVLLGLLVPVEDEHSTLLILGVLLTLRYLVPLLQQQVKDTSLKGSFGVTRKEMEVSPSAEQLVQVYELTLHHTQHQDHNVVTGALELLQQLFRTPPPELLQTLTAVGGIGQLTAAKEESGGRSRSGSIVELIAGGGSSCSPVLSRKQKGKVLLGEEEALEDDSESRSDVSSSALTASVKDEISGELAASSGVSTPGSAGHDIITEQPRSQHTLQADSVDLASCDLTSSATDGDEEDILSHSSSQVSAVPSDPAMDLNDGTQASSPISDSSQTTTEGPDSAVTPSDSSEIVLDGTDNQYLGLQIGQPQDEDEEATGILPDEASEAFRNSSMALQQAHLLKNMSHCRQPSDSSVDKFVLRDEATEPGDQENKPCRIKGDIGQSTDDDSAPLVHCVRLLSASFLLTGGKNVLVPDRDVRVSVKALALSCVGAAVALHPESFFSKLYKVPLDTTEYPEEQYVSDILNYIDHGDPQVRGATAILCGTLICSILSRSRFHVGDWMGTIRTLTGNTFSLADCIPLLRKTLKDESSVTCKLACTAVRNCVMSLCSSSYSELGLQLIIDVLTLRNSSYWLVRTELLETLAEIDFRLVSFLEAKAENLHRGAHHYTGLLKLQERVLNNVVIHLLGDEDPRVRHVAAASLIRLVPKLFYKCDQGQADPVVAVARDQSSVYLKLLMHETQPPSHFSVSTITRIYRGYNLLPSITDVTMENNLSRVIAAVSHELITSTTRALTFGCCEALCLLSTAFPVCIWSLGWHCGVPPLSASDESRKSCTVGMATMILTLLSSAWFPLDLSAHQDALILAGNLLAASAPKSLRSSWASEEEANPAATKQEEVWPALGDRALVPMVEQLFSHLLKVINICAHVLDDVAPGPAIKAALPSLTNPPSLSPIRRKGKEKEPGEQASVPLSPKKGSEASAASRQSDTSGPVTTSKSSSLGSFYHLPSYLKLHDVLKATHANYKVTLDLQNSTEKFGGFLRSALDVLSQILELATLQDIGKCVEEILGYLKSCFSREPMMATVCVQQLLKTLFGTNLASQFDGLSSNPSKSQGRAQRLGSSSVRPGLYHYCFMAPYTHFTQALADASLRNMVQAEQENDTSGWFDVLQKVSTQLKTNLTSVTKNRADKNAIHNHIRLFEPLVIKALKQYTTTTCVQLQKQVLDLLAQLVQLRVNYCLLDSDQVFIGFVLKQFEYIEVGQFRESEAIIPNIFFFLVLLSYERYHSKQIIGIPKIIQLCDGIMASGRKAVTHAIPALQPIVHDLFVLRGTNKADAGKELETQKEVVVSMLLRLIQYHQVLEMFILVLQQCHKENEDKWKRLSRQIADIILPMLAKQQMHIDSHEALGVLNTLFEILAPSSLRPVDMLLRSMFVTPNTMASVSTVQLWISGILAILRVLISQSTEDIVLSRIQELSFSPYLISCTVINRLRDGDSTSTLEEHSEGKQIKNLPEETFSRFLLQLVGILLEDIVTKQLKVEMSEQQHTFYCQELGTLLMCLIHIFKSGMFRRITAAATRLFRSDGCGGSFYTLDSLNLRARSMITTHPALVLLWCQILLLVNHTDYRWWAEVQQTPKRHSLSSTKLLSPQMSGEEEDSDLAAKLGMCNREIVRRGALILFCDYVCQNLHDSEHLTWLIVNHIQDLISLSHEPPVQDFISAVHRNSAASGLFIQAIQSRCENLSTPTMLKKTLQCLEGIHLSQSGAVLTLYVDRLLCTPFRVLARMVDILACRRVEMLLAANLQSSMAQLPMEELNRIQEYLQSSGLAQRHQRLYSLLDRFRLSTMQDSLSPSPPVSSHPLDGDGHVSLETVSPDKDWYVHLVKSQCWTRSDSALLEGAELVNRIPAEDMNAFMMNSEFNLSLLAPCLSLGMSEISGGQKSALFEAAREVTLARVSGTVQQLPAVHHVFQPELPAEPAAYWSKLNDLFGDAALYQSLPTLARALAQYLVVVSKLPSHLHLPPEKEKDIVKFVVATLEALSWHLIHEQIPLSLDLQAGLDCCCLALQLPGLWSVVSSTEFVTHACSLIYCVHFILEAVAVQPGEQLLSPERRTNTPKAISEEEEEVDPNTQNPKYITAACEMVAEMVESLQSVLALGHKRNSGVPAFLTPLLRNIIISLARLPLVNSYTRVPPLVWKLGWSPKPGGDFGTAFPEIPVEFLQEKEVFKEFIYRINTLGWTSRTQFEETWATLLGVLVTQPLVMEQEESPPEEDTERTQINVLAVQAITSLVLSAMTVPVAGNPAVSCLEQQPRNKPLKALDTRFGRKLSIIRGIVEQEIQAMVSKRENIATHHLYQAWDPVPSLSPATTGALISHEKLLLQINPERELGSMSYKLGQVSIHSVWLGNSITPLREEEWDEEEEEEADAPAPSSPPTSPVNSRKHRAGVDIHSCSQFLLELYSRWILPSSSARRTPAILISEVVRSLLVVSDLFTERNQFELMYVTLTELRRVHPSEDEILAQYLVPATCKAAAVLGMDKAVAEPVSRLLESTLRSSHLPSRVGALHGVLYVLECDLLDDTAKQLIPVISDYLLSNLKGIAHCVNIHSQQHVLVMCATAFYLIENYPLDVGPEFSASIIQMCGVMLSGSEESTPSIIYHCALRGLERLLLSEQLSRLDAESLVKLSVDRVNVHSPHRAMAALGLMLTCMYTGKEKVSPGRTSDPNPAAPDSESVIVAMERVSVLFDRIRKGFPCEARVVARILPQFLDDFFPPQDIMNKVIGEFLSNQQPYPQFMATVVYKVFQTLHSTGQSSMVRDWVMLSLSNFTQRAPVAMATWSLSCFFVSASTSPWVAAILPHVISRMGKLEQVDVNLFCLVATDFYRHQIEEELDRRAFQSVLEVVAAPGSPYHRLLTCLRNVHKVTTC
NDUFS8, O00217, UniProt O00217, whole entry: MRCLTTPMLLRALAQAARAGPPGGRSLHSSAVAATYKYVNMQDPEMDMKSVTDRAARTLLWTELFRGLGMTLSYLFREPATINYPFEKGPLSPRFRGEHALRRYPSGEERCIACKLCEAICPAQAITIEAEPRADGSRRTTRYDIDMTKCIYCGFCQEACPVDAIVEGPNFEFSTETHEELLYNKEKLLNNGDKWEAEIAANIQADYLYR
SEC61B, P60468, UniProt P60468, whole entry: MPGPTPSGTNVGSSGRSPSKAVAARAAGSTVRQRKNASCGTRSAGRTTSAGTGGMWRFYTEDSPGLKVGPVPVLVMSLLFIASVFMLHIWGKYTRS
SMARCA5, O60264, UniProt O60264, whole entry: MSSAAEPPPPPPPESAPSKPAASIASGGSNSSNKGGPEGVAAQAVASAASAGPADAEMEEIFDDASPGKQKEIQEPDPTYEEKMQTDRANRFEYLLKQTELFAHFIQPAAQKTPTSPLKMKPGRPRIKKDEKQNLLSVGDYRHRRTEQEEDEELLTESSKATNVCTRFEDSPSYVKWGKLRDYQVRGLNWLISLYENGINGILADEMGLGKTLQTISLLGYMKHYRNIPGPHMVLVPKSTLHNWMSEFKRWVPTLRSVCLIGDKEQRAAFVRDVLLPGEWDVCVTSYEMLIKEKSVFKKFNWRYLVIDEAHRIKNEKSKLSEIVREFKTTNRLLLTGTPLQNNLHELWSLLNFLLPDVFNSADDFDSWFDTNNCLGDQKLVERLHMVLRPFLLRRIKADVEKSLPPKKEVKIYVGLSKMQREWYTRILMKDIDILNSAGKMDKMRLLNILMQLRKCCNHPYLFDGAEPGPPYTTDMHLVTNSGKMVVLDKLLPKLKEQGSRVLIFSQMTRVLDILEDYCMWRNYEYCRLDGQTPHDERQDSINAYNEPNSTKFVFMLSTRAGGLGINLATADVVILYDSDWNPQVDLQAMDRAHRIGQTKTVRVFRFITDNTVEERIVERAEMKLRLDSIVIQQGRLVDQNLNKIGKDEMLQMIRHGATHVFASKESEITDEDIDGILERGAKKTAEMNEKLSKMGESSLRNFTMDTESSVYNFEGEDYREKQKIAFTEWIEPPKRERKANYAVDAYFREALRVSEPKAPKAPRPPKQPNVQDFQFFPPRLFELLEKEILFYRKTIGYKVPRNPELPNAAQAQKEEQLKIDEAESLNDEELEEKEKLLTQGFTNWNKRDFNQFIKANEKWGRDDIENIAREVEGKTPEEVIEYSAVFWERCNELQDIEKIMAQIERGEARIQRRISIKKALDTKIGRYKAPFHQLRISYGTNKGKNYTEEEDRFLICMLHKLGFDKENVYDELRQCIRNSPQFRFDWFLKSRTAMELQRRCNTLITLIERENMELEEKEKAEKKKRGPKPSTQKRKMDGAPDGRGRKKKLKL

Assays:
Assay in all cases: PRISMA enrichment of interactor (LFQ) in peptide spot vs all other peptide spots (log2 fold change); higher = stronger / more specific binding of the interactor to the peptide
APLP2, Q06481 = biological target: APLP2, Q06481
Procedure: (§1)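 PRISMA: 15-aa overlapping tiles (offset 8 aa) of 60 microproteins, plus SOS1/GLUT1 control peptides, were spot-synthesized on cellulose membranes in triplicate. Membranes were incubated with benzonase-treated HEK293T lysate, and bound proteins were identified by LC-MS/MS with LFQ. Enrichment is the log2 fold change of each protein in one spot versus all other spots. Only interactors passing the significance cutoff are listed.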

CSDE1, O75534 = biological target: CSDE1, O75534
Procedure: as §1

DNAJB11, Q9UBS4 = biological target: DNAJB11, Q9UBS4
Procedure: as §1

EIF3B, P55884 = biological target: EIF3B, P55884
Procedure: as §1

FAM120A, Q9NZB2 = biological target: FAM120A, Q9NZB2
Procedure: as §1

GRB2, P62993 = biological target: GRB2, P62993
Procedure: as §1

HIST1H1E, P10412 = biological target: HIST1H1E, P10412
Procedure: as §1

HP, P00738 = biological target: HP, P00738
Procedure: as §1

HTT, P42858 = biological target: HTT, P42858
Procedure: as §1

MLF2, Q15773 = biological target: MLF2, Q15773
Procedure: as §1

MRPS9, P82933 = biological target: MRPS9, P82933
Procedure: as §1

NAA50, Q9GZZ1 = biological target: NAA50, Q9GZZ1
Procedure: as §1

NDUFS8, O00217 = biological target: NDUFS8, O00217
Procedure: as §1

NOL6, Q9H6R4 = biological target: NOL6, Q9H6R4
Procedure: as §1

ORC4, O43929 = biological target: ORC4, O43929
Procedure: as §1

ORMDL1, Q9P0S3 = biological target: ORMDL1, Q9P0S3
Procedure: as §1

OXSR1, O95747 = biological target: OXSR1, O95747
Procedure: as §1

PYCR3, Q53H96 = biological target: PYCR3, Q53H96
Procedure: as §1

PYM1, Q9BRP8 = biological target: PYM1, Q9BRP8
Procedure: as §1

QRICH1, Q2TAL8 = biological target: QRICH1, Q2TAL8
Procedure: as §1

RNF219, Q5W0B1 = biological target: RNF219, Q5W0B1
Procedure: as §1

SEC16A, O15027 = biological target: SEC16A, O15027
Procedure: as §1

SEC61B, P60468 = biological target: SEC61B, P60468
Procedure: as §1

SH3GL1, Q99961 = biological target: SH3GL1, Q99961
Procedure: as §1

SLC25A1, P53007 = biological target: SLC25A1, P53007
Procedure: as §1

SMARCA5, O60264 = biological target: SMARCA5, O60264
Procedure: as §1

SNX9, Q9Y5X1 = biological target: SNX9, Q9Y5X1
Procedure: as §1

STAT1, P42224 = biological target: STAT1, P42224
Procedure: as §1

TCAF1, Q9Y4C2 = biological target: TCAF1, Q9Y4C2
Procedure: as §1

TMA16, Q96EY4 = biological target: TMA16, Q96EY4
Procedure: as §1

TPD52L2, O43399 = biological target: TPD52L2, O43399
Procedure: as §1

UBA1, P22314 = biological target: UBA1, P22314
Procedure: as §1

UHRF1, Q96T88 = biological target: UHRF1, Q96T88
Procedure: as §1

YTHDC1, Q96MU7 = biological target: YTHDC1, Q96MU7
Procedure: as §1

ZMYM4, Q5VZL5 = biological target: ZMYM4, Q5VZL5
Procedure: as §1

ZW10, O43264 = biological target: ZW10, O43264
Procedure: as §1

## SSPPGRPTSSCRSSL [RAB12]
APLP2, Q06481
  PRISMA enrichment of interactor (log2): 6.35
CSDE1, O75534
  PRISMA enrichment of interactor (log2): 4.89
DNAJB11, Q9UBS4
  PRISMA enrichment of interactor (log2): 6.86
EIF3B, P55884
  PRISMA enrichment of interactor (log2): 4.89
FAM120A, Q9NZB2
  PRISMA enrichment of interactor (log2): 5.89
GRB2, P62993
  PRISMA enrichment of interactor (log2): 6.34
HIST1H1E, P10412
  PRISMA enrichment of interactor (log2): 6.7
HP, P00738
  PRISMA enrichment of interactor (log2): 8.44
HTT, P42858
  PRISMA enrichment of interactor (log2): 4.53
MLF2, Q15773
  PRISMA enrichment of interactor (log2): 4.45
MRPS9, P82933
  PRISMA enrichment of interactor (log2): 6.23
NAA50, Q9GZZ1
  PRISMA enrichment of interactor (log2): 4.59
NDUFS8, O00217
  PRISMA enrichment of interactor (log2): 3.87
NOL6, Q9H6R4
  PRISMA enrichment of interactor (log2): 6.22
ORC4, O43929
  PRISMA enrichment of interactor (log2): 4.32
ORMDL1, Q9P0S3
  PRISMA enrichment of interactor (log2): 7.5
OXSR1, O95747
  PRISMA enrichment of interactor (log2): 8.25
PYCR3, Q53H96
  PRISMA enrichment of interactor (log2): 8.73
PYM1, Q9BRP8
  PRISMA enrichment of interactor (log2): 4.07
QRICH1, Q2TAL8
  PRISMA enrichment of interactor (log2): 4.92
RNF219, Q5W0B1
  PRISMA enrichment of interactor (log2): 5.39
SEC16A, O15027
  PRISMA enrichment of interactor (log2): 4.88
SEC61B, P60468
  PRISMA enrichment of interactor (log2): 5.12
SH3GL1, Q99961
  PRISMA enrichment of interactor (log2): 6.35
SLC25A1, P53007
  PRISMA enrichment of interactor (log2): 6
SMARCA5, O60264
  PRISMA enrichment of interactor (log2): 5.42
SNX9, Q9Y5X1
  PRISMA enrichment of interactor (log2): 4.44
STAT1, P42224
  PRISMA enrichment of interactor (log2): 4.36
TCAF1, Q9Y4C2
  PRISMA enrichment of interactor (log2): 6.21
TMA16, Q96EY4
  PRISMA enrichment of interactor (log2): 4.53
TPD52L2, O43399
  PRISMA enrichment of interactor (log2): 5.34
UBA1, P22314
  PRISMA enrichment of interactor (log2): 5.43
UHRF1, Q96T88
  PRISMA enrichment of interactor (log2): 9.73
YTHDC1, Q96MU7
  PRISMA enrichment of interactor (log2): 7.27
ZMYM4, Q5VZL5
  PRISMA enrichment of interactor (log2): 4.02
ZW10, O43264
  PRISMA enrichment of interactor (log2): 5.84
